Experimental data taken from patent publication US9802999 (VETERINAERINSTITUTTET, dated 2017).

T1: recombinant human FcγRIIb (Sino Biological) (human, UniProt P31994 43-217, limits assumed)
T1 construct: Bought reagent, added in solution at 1 µg/ml; The construct is not described; also called soluble recombinant FcγRIIb; FcgammaRIIb
T1 sequence (looked up): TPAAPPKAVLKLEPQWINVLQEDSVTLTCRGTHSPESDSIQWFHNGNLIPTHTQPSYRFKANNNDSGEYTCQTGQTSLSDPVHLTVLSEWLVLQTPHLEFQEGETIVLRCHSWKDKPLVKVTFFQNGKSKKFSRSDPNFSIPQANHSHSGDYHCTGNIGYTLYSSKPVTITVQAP


Legend:
[1] = target: T1, recombinant human FcγRIIb (Sino …); assay: ELISA, CP immobilized, soluble recombinant human FcγRIIb 1 µg/ml added
Description: (§1) Proteins containing CP or a control protein, human serum albumin, were immobilized to the surface of the ELISA wells and binding of added soluble recombinant FcγRIIb was analysed.
(§2) CP, FPST, FP1, FP5 and control protein human albumin (Sigma Aldrich) were coated at 10, 5 and 2.5 µg/mL in 0.05 M carbonate-bicarbonate buffer, pH 9.6, (Sigma-Aldrich) on high binding flat bottomed, 96-well microplates (Corning Inc., Corning, USA) at 37° C. for 1 h (100 µL/well). Plates were blocked with 2.5% w/v bovine serum albumin in PBS (200 µL/well). Plates were washed and incubated with recombinant 1 µg/ml human FcγRIIb (Sino Biological) in PBS containing 0.05% Tween-20 (PBST) for 1 h at room temperature with gentle shaking. For detection of bound FcγRIIb, wells were first incubated with anti-FcγRIIb antibody (Sino Biological) and thereafter incubated with rabbit anti-mouse-HRP (Dako Cytomation). […] The reaction was stopped with 2 M H2SO4 (50 µL/well) and optical density was read at 450 nm. In between all steps, plates were washed at least three times with PBST.

[2] = target: T1, recombinant human FcγRIIb (Sino …); assay: ELISA, protein immobilized, soluble recombinant FcγRIIb added
Description: as §1, §2

[3] = target: T1, recombinant human FcγRIIb (Sino …); assay: ELISA, FPST immobilized, soluble recombinant human FcγRIIb 1 µg/ml added
Description: as §1, §2

binding result [2]	Binder	also measured
–	human FGL2 C-terminal peptide (CP), with N-terminal histidin-tag (ligand, Expressed in E. coli, purified by IMAC; A weaker band of about 30 kDa in SDS-PAGE indicates dimerization; also called his-tagged CP) MGHHHHHHHHHHSSGHIDDDDKGDALRFNKHYNHDLKFFTTPDKDNDRYPSGNCGLYYSSGWWFDACLSANLNGKYYHQKYRGVRNGIFWGTWPGVSEAHPGGYKSSFKEAKMMIRPKHFKP	binding result [1]: binds
binds	FP5, fusion protein of P5, linker, and CP (other, Expressed in E. coli; SDS-PAGE indicates a dimeric structure) MGHHHHHHHHHHSSGHIDDDDKKTLTNKLKAAEARAEFAERSVQKLQKEVDRLEDELVNEKEKYKSITDELDQTFSELSGYRADAAPGDALRFNKHYNHDLKFFTTPDKDNDRYPSGNCGLYYSSGWWFDACLSANLNGKYYHQKYRGVRNGIFWGTWPGVSEAHPGGYKSSFKEAKMMIRPKHFKP	–
–	FPST, fusion protein of shrimp tropomyosin, linker (RADAAP), and CP (other, Expressed in E. coli; the number of copies is not fixed) MGHHHHHHHHHHSSGHIDDDDKMDAIKKKMQAMKLEKDNAMDRADTLEQQNKEANNRAEKSEEEVFGLQKKLQQLENDLDSVQEALLKANQHLEEKDKALSNAEGEVAALNRRIQLLEEDLERSEERLNTATTKLAEASQAADESERMRKVLENRSLSDEERMDALENQLKEARFLAEEADRKYDEVARKLAMVEADLERAEERAETGESKIVELEEELRVVGNNLKSLEVSEEKANQREEAYKEQIKTLTNKLKAAEARAEFAERSVQKLQKEVDRLEDELVNEKEKYKSITDELDQTFSELSGYRADAAPGDALRFNKHYNHDLKFFTTPDKDNDRYPSGNCGLYYSSGWWFDACLSANLNGKYYHQKYRGVRNGIFWGTWPGVSEAHPGGYKSSFKEAKMMIRPKHFKP	binding result [3]: binds
binds	FP1, fusion protein of P1, linker, and CP (other, Expressed in E. coli; SDS-PAGE indicates a dimeric structure) MGHHHHHHHHHHSSGHIDDDDKMDAIKKKMQAMKLEKDNAMDRADTLEQQNKEANNRAEKSEEEVFGLQKKLQQLENDLDSVQEALLKANQHLEEKDKALRADAAPGDALRFNKHYNHDLKFFTTPDKDNDRYPSGNCGLYYSSGWWFDACLSANLNGKYYHQKYRGVRNGIFWGTWPGVSEAHPGGYKSSFKEAKMMIRPKHFKP	–
